The results in this text go back to US6943183B2 (Pfizer Inc, priority 2000, dated 2005).

Sequences of proteins named here, by UniProt entry; tags and fusion partners are left off.
UniProt Q02293, whole entry: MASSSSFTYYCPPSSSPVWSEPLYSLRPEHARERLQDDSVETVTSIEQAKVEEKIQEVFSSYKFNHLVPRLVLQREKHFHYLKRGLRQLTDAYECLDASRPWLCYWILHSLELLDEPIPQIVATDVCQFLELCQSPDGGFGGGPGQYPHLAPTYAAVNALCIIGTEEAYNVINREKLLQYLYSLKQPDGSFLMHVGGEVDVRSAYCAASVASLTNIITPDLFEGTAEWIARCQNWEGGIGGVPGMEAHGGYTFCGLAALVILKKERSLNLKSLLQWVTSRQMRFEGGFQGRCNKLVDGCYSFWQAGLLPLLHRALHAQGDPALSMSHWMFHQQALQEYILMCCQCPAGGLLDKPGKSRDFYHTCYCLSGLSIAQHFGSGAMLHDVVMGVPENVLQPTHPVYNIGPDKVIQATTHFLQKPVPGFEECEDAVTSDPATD

The target of the test is SF9 affinity purified rat FPT (Rattus norvegicus, UniProt Q02293+Q04631). The test is described as follows: PFT (FPT) inhibitory activity assay, radiolabeled farnesyl pyrophosphate and biotinyl peptide, streptavidin beads. Particulars: read-out: FTase IC50 nM; HEPES buffer pH 7.4, 30° C., 30 minutes.

Each structure is given as a SMILES string. Structures were worked out from names or drawings and are uncertain.

For the compound `CCc1cccc(OCc2c(O[C@H](Cn3ccnc3)c3ccccc3)ccc3c2CCCC3=O)c1`, the IC50 (as a rule, the concentration at which inhibition is half-maximal) was 1 nM.
